These are yes or no findings as the source states them, for the method shown. Binding seen in cells or lysates may run through a third protein. For some assays here: Binding can be weak; no strength is given. Sequences can lack the tags named with a protein.
T1: SGS3-3×Flag (pMDC32-SGS3-3×Flag) (Arabidopsis thaliana) (UniProt Q9LDX1)
T1 sequence: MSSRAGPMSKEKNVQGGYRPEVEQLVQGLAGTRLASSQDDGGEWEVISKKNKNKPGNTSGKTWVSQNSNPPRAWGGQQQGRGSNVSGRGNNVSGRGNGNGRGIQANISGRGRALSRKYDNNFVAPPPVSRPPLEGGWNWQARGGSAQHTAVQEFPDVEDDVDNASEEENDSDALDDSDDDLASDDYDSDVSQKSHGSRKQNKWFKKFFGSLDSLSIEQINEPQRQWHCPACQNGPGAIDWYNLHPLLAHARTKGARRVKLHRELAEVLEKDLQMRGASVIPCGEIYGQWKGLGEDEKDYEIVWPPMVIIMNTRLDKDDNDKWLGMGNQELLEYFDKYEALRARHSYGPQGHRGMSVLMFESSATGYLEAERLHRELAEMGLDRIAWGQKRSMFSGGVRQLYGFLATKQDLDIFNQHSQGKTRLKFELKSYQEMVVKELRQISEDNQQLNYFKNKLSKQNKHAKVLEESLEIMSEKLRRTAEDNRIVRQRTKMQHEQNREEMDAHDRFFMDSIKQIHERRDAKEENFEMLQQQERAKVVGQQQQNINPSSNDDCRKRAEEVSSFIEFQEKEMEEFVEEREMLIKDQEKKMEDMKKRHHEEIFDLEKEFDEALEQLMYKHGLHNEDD

Protein sequences, listed by entry. Tags and fused reporters are not part of them. Lines headed by an entry give the natural chain unless they say otherwise; changes in a name come on top.
UniProt Q8LBM8: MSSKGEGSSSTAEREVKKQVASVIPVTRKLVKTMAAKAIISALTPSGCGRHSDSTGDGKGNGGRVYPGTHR

B1: 1a-Y^N (CMV 1a fused to the N-terminal half of YFP) (protein, UniProt P17769 1-993)
chain: MATSSFNINELVASHGDKGLLATALVDKTAHEQLEEQLQHQRRGRKVYIRNVLGVKDSEVIRNRYGGKYDLHLTQQEFAPHGLAGALRLCETLDCLDSFPSSGLRQDLVLDFGGSWVTHYLRGHNVHCCSPCLGIRDKMRHAERLMNMRKIILNDPQQFDGRQPDFCTQPAADCKVQAHFAISIHGGYDMGFRGLCEAMNAHGTTILKGTMMFDGAMMFDDQGVIPELNCQWRKIRSAFSETEDVTPLVGKLNSTVFSRVRKFKTMVAFDFINESTMSYVHDWENIKSFLTDQTYSYRGMTYGIERCVIHAGIMTYKIIGVPGMCPPELIRHCIWFPSIKDYVGLKIPASQDLVEWKTVRILTSTLRETEEIAMRCYNDKKAWMEQFKVILGVLSAKSSTIVINGMSMQSGERIDINDYHYIGFAILLHTKMKYEQLGKMYDMWNASSISKWFAALTRPLRVFFSSVVHALFPTLRPREEKEFLIKLSTFVTFNEECSFDGGEEWDVISSAAYVATQAVTDGKILAAQKAEKLAEKLAQPVSEVSDSPETSSQTPDDTADVCGREREVSELDSLSAQTRSPITRVAERATAMLEYAAYEKQLHDTTVSNLKRIWNMAGGDDKRNSLEGNLKFVFDTYFTVDPMVNIHFSTGRWMRPVPEGIVYSVGYNERGLGPKSDGELYIVNSECVICNSESLSTVTRSLQAPTGTISQVDGVAGCGKTTAIKSIFEPSTDMIVTANKKSAQDVRMALFKSSDSKEACTFVRTADSVLLNECPTVSRVLVDEVVLLHFGQLCAVMSKLKAVRAICFGDSEQIAFSSRDASFDMRFSKIIPDETSDADTTFRSPQDVVPLVRLMATKALPKGTHSKYTKWVSQSKVKRSVTSRAIASVTLVDLDSSRFYITMTQADKASLISRAKEMNLPKTFWNERIKTVHESQGISEDHVTLVRLKSTKCDLFKQFSYCLVALTRHKVTFRYEYCGVLNGDLIAECVARA

Key:
[1] = molecular target: T1, SGS3-3×Flag (pMDC32-SGS3-3×Flag) (Arabidopsis thaliana); assay: co-IP; competitive co-IP: SGS3-3×Flag (OD600 0.2) and VISP1-GFP (OD600 0.2) with increasing 2b-6×Myc (OD600 0.02, 0.1, 0.5) in N. benthamiana leaves, 1 mM 3-MA at 48 hpi; IP with anti-Flag beads
[2] = molecular target: VISP1-Y^C (VIRUS-INDUCED SMALL PEPTIDE 1 fused to the C-terminal half of YFP) (Arabidopsis thaliana) (UniProt Q8LBM8); assay: split reporter; BiFC in N. benthamiana leaves, agroinfiltration of Y^N and Y^C fusions with P19 (OD600 0.4:0.4:0.1), YFP fluorescence by confocal microscopy at 60 hpi

Row | Molecule | binding [1] | binding [2]
1 | VISP1-GFP (pGDGm-VISP1-GFP) (Arabidopsis thaliana) | binds | –
2 | B1 | – | no binding

Source: article PMC10310818
